The values below come from PubChem BioAssay AID1487 (National Center for Advancing Translational Sciences (NCATS), 2009).

This test can be described thus: qHTS Assay for Modulators of Lamin A Splicing. To be noted: HeLa LMNA splicing GFP/RFP minigene ratio, 48 h. Put shortly:
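S3 HeLa cells stably expressing lamin A-EGFP splicing minigene plus DsRed2, 600 cells/well, 48 h compound exposure at 37C. Laser-scanning cytometry; analysed as GFP (500-530 nm)/RFP (575-640 nm) total intensity ratio; 0.5% DMSO vehicle.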

Where [1] appears, read: measured here: GFP splicing reporter channel.
[2] abbreviates: measured here: RFP viability control channel.

The other results are listed elsewhere or left out. Further columns of the screen follow, without active or inactive calls. The list favours compounds with an active or inconclusive main result. Words in brackets tell the shape of the fitted curve; partial curves, single points and poor fits give uncertain potencies.

For `Cc1cc(S(=O)(=O)Nc2cccc(-c3ccc(N4CCOCC4)nn3)c2)c(C)cc1Cl`, under setting [1], the AC50 is 0.0158 µM [falling, full curve, poor fit].

For the compound `CC1CC(C)CN(C(=S)Nc2ccc(OC(F)F)cc2)C1` (stereo not drawn), the half-maximal activity concentration (AC50) runs as follows: under setting [1], 20 µM [rising, single point]; under setting [2], 25.1 µM [rising, partial curve]. Take `CC(=O)Nc1ccc(OCC(O)Cn2ccnc2)cc1` (stereo not drawn): under setting [1], the AC50 is 0.02 µM [rising, full curve, poor fit]. Still for that read-out and setting: in the case of `CCCC1O[C@@H]2C[C@H]3[C@@H]4CCC5=CC(=O)C=C[C@]5(C)[C@H]4[C@@H](O)C[C@]3(C)[C@]2(C(=O)CO)O1` (stereo partly drawn) it was 10 µM [rising, partial curve, poor fit]; in that of `Cc1ccc(C)c(CN2C(=O)c3ccccc3Sc3ccc(C(=O)NCc4ccco4)cc32)c1`, 1.26 µM [falling, partial curve, poor fit].

As to `COc1ccc2c(c1)c(=O)c(C(=O)c1ccccc1)cn2Cc1ccc(C)cc1`, under setting [2], the AC50 was 12.6 µM [rising, single point]. Regarding `Cc1ccc(/C=C/C(=O)c2c(C)nc3ccccn23)cc1`, the AC50 is 11.2 µM [falling, partial curve] under setting [1] and 35.5 µM [falling, single point] under setting [2].

In the case of `COC(=O)CCCC1=CC2=C(c3ccccc3)C(=O)C(C)(OC(=O)C3CCCC3)C(=O)C2=CN1CC(C)C` (stereo not drawn), the AC50 reads like this: under setting [1], 2 µM [rising, partial curve]; under setting [2], 5.62 µM [rising, single point].

Consider `Cc1noc(NS(=O)(=O)c2ccc(N/C=C\C(=O)c3ccc(Br)cc3)cc2)c1C`, for which the AC50 under setting [2] is 0.0224 µM [falling, full curve, poor fit]. With `CCN1CCN(S(=O)(=O)c2ccc(Oc3ccccc3OC)cc2)CC1`, the AC50 under setting [2] was 0.00316 µM [rising, full curve].

`CCN(Cc1ccccc1)C(=O)Cn1c(=O)oc2ccccc21`: the AC50 under setting [1] is 0.178 µM [rising, full curve, poor fit]. As for `O=C(NC1CC2CCCC(C1)N2S(=O)(=O)c1ccccc1)c1ccccc1` (stereo not drawn), the AC50 is 14.1 µM [rising, partial curve] under setting [1] and 14.1 µM [rising, partial curve] under setting [2]. For the compound `CN(C)/N=C/c1ccc(Sc2ccc([N+](=O)[O-])cc2[N+](=O)[O-])o1`, under setting [2], the AC50 is 31.6 µM [rising, single point]. `C=CCn1c(C)cc(C(=O)CSc2nnc(NCc3ccccc3)s2)c1C`: the AC50 is 22.4 µM [rising, partial curve, poor fit] under setting [1] and 0.355 µM [rising, partial curve] under setting [2]. On to `CCOc1ccc2c(c1)s/c(=N\S(=O)(=O)c1ccc(OC)cc1)n2C(F)F`, for which the AC50 is 8.91 µM [rising, partial curve] under setting [1] and 12.6 µM [rising, partial curve] under setting [2]. On to `CCCCCCCOC(=O)C[N+](C)(C)CCOC1CC2CCC1(C)C2(C)C` (stereo not drawn), for which the AC50 under setting [2] was 14.1 µM [rising, single point]. Still for that read-out and setting: the same measure for `CCCCn1c(Oc2cccc(C(=O)OC)c2)nc2c1c(=O)n(C)c(=O)n2C`: 0.01 µM [falling, full curve, poor fit]. On to `COc1cccc(NC(=O)CSc2nc3c(sc4ccccc43)c(=O)n2CCN(C)C)c1`, for which the AC50 under setting [2] was 20 µM [falling, partial curve, poor fit].

With `CN1c2ccsc2C(O)=C(C(=S)Nc2ccc(F)c(Cl)c2)S1(=O)=O`, under setting [2], the AC50 is 11.2 µM [rising, partial curve]. `CSc1nc(Cl)c(Cc2ccc(OCC(C)C)cc2)c(N2CCOCC2)n1`: under setting [2], the AC50 is 20 µM [rising, single point].

`CCC(C(=O)OCC(=O)Nc1cc(OC)ccc1OC)c1ccccc1` (stereo not drawn): the AC50 under setting [1] is 0.00447 µM [falling, full curve, poor fit]. Turning to `CCN1C(=O)/C(=C\c2ccc(-c3ccc([N+](=O)[O-])cc3OC)o2)SC1=Nc1cccc(C(=O)O)c1`, the AC50 under setting [1] was 35.5 µM [falling, single point].

For `C=CCSc1nc2sc3c(c2c(=O)[nH]1)CCC3`, the AC50 runs as follows: under setting [1], 35.5 µM [rising, partial curve, poor fit]; under setting [2], 12.6 µM [rising, partial curve]. In the case of `COCc1cc(=O)[nH]c(Nc2nc3ccc(C)cc3o2)n1`, the AC50 reads like this: under setting [1], 5.62 µM [rising, full curve]; under setting [2], 3.98 µM [rising, full curve]. For `O=C(/C=C/c1ccc(F)cc1)NC(=S)Nc1ccccc1C(=O)NC1CCCCC1`, the AC50 was 14.1 µM [falling, single point] under setting [1] and 14.1 µM [falling, single point] under setting [2]. `Cc1nc(N2CCC(C(N)=O)CC2)c2c(-c3cccs3)csc2n1`: the AC50 under setting [2] is 5.62 µM [falling, partial curve, poor fit].

For the compound `O=C(Oc1ccc(Nc2ncnc3ccccc23)cc1)c1cccnc1`, the AC50 under setting [1] was 31.6 µM [falling, partial curve]. Take `Cc1cc(C)c2nc(C(F)(F)F)nc(N3CC(C)OC(C)C3)c2c1` (stereo not drawn): under setting [1], the AC50 was 31.6 µM [rising, single point]. As to `COc1cc(Br)cc(CN2CCN(C/C=C/c3ccccc3)CC2)c1O`, the AC50 is 31.6 µM [rising, single point] under setting [1] and 31.6 µM [rising, single point] under setting [2]. With `CCOc1cc(CNC(=O)c2ccc(NC(=O)c3nsc4ccccc34)cc2)ccc1OC`, the AC50 under setting [2] is 3.16 µM [falling, full curve, poor fit]. For `O=C1C2CC=CCC2C(=O)N1c1ccc(Cc2ccncc2)cc1` (stereo not drawn), under setting [2], the AC50 is 6.31 µM [rising, full curve, poor fit].

Take `COc1ccccc1N1CCN(C(=O)COc2ccc(Cl)cc2)CC1`: under setting [2], the half-maximal activity concentration (AC50) is 35.5 µM [rising, single point].

As for `Cc1ccc2nc(NC(=O)CSc3nc4ccccc4o3)sc2c1`, the AC50 under setting [2] is 11.2 µM [rising, single point].

Take `Cc1cc(OC(=O)c2c(Cl)cc(Cl)cc2Cl)nc(C)n1`: under setting [2], the AC50 is 3.98 µM [rising, partial curve]. As to `CCOc1ccc2nc(NC(=O)CSC3=NCCS3)sc2c1`, the AC50 reads like this: under setting [1], 15.8 µM [rising, partial curve]; under setting [2], 20 µM [rising, single point]. `Cc1cc(C)nc(/N=C(\N)Nc2ccccc2-c2ccccc2)n1`: the AC50 under setting [1] is 6.31 µM [falling, full curve, poor fit]. Consider `COCCNC(=O)CCc1c(C)nc2nc(-c3cc(OC)cc(OC)c3)nn2c1C`, for which the AC50 under setting [2] was 6.31 µM [rising, single point].

For the compound `CCCc1oc2ccc(NS(=O)(=O)c3ccc(OC)cc3)cc2c1C(=O)OCC`, under setting [1], the AC50 is 35.5 µM [falling, single point]. For `O=C(CCCCCN1C(=O)CCC1=O)Nc1ccc(Cl)c(C(F)(F)F)c1`, the AC50 under setting [2] was 35.5 µM [rising, single point]. `Cc1ccc(C(NC(=O)N2CCCCC2)=C(Cl)Cl)cc1F`: the AC50 under setting [2] is 5.62 µM [rising, partial curve]. In the case of `CCOc1ccccc1CNC(=O)c1cccc(NC(=O)c2nsc3ccccc23)c1`, the AC50 runs as follows: under setting [1], 0.398 µM [rising, full curve, poor fit]; under setting [2], 0.447 µM [rising, full curve, poor fit]. `Cc1nc(SCC(=O)N2CCN(c3ccccc3)CC2)c2oc3ccccc3c2n1`: the AC50 under setting [2] is 14.1 µM [rising, partial curve]. On the same count and under the same terms, in the case of `CCCN(C(=O)CCn1cnc2onc(-c3ccc(F)cc3)c2c1=O)c1ccccc1C` it was 31.6 µM [rising, single point]. Turning to `COc1cc(C(=O)Nc2nnc(CC(C)(C)C)s2)c([N+](=O)[O-])cc1OC`, the AC50 by setting is: under setting [1], 17.8 µM [rising, single point]; under setting [2], 17.8 µM [rising, single point]. On to `COc1ccc2cc3c(N)nn(C(=O)C4CCC(C(C)(C)C)CC4)c3nc2c1` (stereo not drawn), for which the AC50 under setting [2] was 10 µM [rising, partial curve].

Regarding `CN(C(=S)NCCN1CCOCC1)C(c1ccccc1)c1ccccc1`, under setting [2], the AC50 was 0.00501 µM [rising, full curve, poor fit]. Same read-out and setting: in the case of `CC1(CCc2ccccc2)NC(=O)N(Cc2nnc(-c3ccccc3Br)o2)C1=O` (stereo not drawn) it was 35.5 µM [rising, single point]; in that of `Cc1ccccc1OCCC(=O)Nc1ccc(F)c(Cl)c1`, 4.47 µM [rising, single point]. For the compound `N#Cc1ccccc1NC(=O)C(=O)NCC(c1cccnc1)N1CCc2ccccc2C1` (stereo not drawn), the AC50 reads like this: under setting [1], 0.0316 µM [rising, full curve]; under setting [2], 0.0282 µM [rising, full curve, poor fit]. For the compound `O=C(NC1(C(F)(F)F)Oc2ccccc2O1)N1CCCC1`, the AC50 under setting [1] was 35.5 µM [falling, single point]. On the same count and under the same terms, in the case of `CCCCN(C)c1ncnc2c1cnn2-c1cccc(Cl)c1` it was 31.6 µM [falling, partial curve]; in that of `COc1ccccc1CNc1ncnc2nc[nH]c12`, 0.891 µM [rising, full curve, poor fit]. In the case of `CCOc1ccccc1NC(=O)C1CCCN(S(=O)(=O)c2ccc3c(c2)CCCN3C(C)=O)C1` (stereo not drawn), under setting [2], the AC50 was 0.02 µM [falling, full curve, poor fit]. On the same count and under the same terms, in the case of `CCOC(=O)C1=C(c2ccc(OC)cc2)C(=O)c2ccccc2C1=O` it was 35.5 µM [falling, single point]. As for `Cc1cc(NC(=O)COC(=O)c2oc3c(ccc4ccccc43)c2C)no1`, the AC50 under setting [1] was 0.158 µM [rising, full curve, poor fit] and the AC50 under setting [2] is 0.141 µM [rising, full curve, poor fit]. `Cc1cc(C(=O)CSc2nc3ccccc3c(=O)n2C)c(C)n1CC1CCCO1` (stereo not drawn): the AC50 under setting [2] was 0.316 µM [rising, full curve, poor fit]. Turning to `Cc1cc(SCC(=O)NCc2ccccc2)nc(=O)[nH]1`, the AC50 runs as follows: under setting [1], 0.0112 µM [rising, full curve, poor fit]; under setting [2], 15.8 µM [rising, partial curve].
